# Measured values from patent US20230210816A1 (priority 2020, published 2023).
# Tests used:
# PICV-GFP = experiment: microbe, parasite or virus in culture; assay type: cell-based; conditions: Pichinde virus, Vero C1008, 48 h
# [1] = test system: LASV and JUNV pseudoviruses; experiment: organism not typed; assay type: cell-based; conditions: read-out: in vitro IC50 of aripiprazole in combination
smiles,measurement,setting,value
O=C1CCc2ccc(OCCCCN3CCN(c4cccc(Cl)c4Cl)CC3)cc2N1 [aripiprazole],IC50,PICV-GFP,5.4 µM
same,IC50,[1],4.5 to 6 µM
